Assay results: article PMC6461807
Results are given in words; binding and its absence hold for the method and conditions named. In cells and extracts the contact can be indirect. Some entries that bind do so weakly or less than the wild type.

Target: T1, syndecan-1 (human (endogenous in HBEC-3)) (UniProt P18827)
T1 sequence: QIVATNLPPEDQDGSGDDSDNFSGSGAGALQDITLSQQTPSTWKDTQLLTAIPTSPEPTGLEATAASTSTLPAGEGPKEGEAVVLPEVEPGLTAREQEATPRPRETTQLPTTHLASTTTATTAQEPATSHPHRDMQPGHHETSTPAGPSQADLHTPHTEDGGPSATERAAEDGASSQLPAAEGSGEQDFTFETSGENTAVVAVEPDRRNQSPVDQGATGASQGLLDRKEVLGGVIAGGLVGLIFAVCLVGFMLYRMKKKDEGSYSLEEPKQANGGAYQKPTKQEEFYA
Experiment: co-IP; SDC1 immunoprecipitates from HBEC-3 cell extracts (500 ug cleared lysate, 3 ug antibody, protein-A agarose beads), Western blot for NDR2 and GEF-H1; SDC-1 silencing as control

With “endogenous NDR2 (from UniProt Q9Y2H1-1 1-464) (enzyme)” as the substance, how does the binding read?
Its binding is “binds”.
